Source: patent EP0314008A2, “N-substituted aliphatic heterocyclic compounds able to facilitate the passage of active substances through physiological barriers” (priority 1987, dated 1989)

Test system: skin taken from a "nude" mouse
Test: skin permeability test in vitro, skin diffusion cell apparatus, passage of naproxen-Na
Conditions: compound at 1%, without naproxen - buffer alone

## CCCCCCCCCCCC(=O)N1CCSCC1 [Example 3, 4-lauroylthiomorpholide]
3.0 hours
  F.U.a. 355.5 nm: 0.004 F.U.a.
6.0 hours
  F.U.a. 355.5 nm: 0.002 F.U.a.
7.0 hours
  F.U.a. 355.5 nm: 0.002 F.U.a.
